# From PubChem BioAssay (NCATS)
# This list was built around the results that the source calls inconclusive (neither active nor inactive); the mix of calls is not that of the screen. Where the call is inconclusive, the potency comes from a doubtful curve fit. Active and inactive are the calls of the source. Calls follow the shape of the dose curve; as a rule, active = well fitted cell-killing curve with a large enough effect; inconclusive = small, poorly fitted or top-dose-only effect, or effect the other way; inactive = no such curve, though single readings can be large or run the other way.
# Experiments:
# [1] = Quantitative High-Throughput drug screen in 47 multiple myeloma cell lines against the NCATS MIPE library collection: RPMI8226_ATCC cell viability assay (AID 1919871); conditions: RPMI8226 myeloma viability, CellTiter-Glo ATP luminescence, 48 h; viability (% of control): at 45.8 µM (top of the series); also: nearly all actives have a fitted effect of over 30% in size
# Summary of the method: (§1)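 Inhibition of viability over 48 h was scored by ATP content (CellTiter-Glo) in 500-cell wells. Zero and full viability were defined by media-only and DMSO-only wells.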
# [2] = Quantitative High-Throughput drug screen in 47 multiple myeloma cell lines against the NCATS MIPE library collection: OPM2_DSMZ cell viability assay (AID 1919872); conditions: OPM2 myeloma viability, CellTiter-Glo ATP luminescence, 48 h; viability (% of DMSO): at 45.8 µM (top of the series); also: nearly all actives have a fitted effect of over 30% in size
# Summary of the method: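 Viability readout: CellTiter-Glo luminescence following 5 min room-temperature incubation with reagent. Prior exposure: 48 h, 37C, humidified 5% CO2, 500 cells per well.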
# [3] = Quantitative High-Throughput drug screen in 47 multiple myeloma cell lines against the NCATS MIPE library collection: KMS11_JCRBsus cell viability assay (AID 1919873); conditions: KMS11 myeloma viability, CellTiter-Glo ATP luminescence, 48 h; series mostly up to 45.8 µM; also: nearly all actives have a fitted effect of over 50% in size;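 as to viability (% of control): 100% = DMSO-only wells and 0% = media-only wells without cells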
# Summary of the method: as §1
# [4] = Quantitative High-Throughput drug screen in 47 multiple myeloma cell lines against the NCATS MIPE library collection: KMS28BM_JCRB cell viability assay (AID 1919874); conditions: CellTiter-Glo ATP, 48 h; series mostly up to 45.8 µM; also: nearly all actives have a fitted effect of over 35% in size
# Summary of the method: as §1
# Potency is read from the fitted curve at half-maximal effect.
Structure (SMILES),Potency [1],Potency [2],Potency [3],Potency [4],viability (% of control) [1]
CCc1cc2c(cc1N1CCC(N3CCOCC3)CC1)C(C)(C)c1[nH]c3cc(C#N)ccc3c1C2=O,"inconclusive: 0.0118 µM [rising, full curve, poor fit]","inconclusive: 0.0074 µM [rising, full curve, poor fit]","inconclusive: 0.0235 µM [rising, full curve]","inconclusive: 0.0132 µM [rising, full curve]",
CCn1cc(C(=O)O)c(=O)c2cc(F)c(N3CCN(C)CC3)cc21,"inconclusive: 0.332 µM [cytotoxic, full curve, poor fit]",,inactive,"inconclusive: 7.43 µM [cytotoxic, single point]",
COc1ccc(C=Cc2cc(OC)c(OC)c(OC)c2)cc1NC(=O)[C@H](N)CO,active: 0.0264 µM,,"inconclusive: 0.0026 µM [cytotoxic, partial curve, poor fit]",active: 0.0118 µM,
COC1=C(OC)C(=O)C(CC=C(C)CCC=C(C)CCC=C(C)CCC=C(C)CCC=C(C)CCC=C(C)CCC=C(C)CCC=C(C)CCC=C(C)CCC=C(C)C)=C(C)C1=O,"inconclusive: 0.526 µM [rising, full curve, poor fit]",,"inconclusive: 0.0053 µM [rising, full curve, poor fit]","inconclusive: 10.5 µM [rising, partial curve, poor fit]",
N#Cc1c(O)c2c(-c3ccc(-c4ccccc4O)cc3)csc2[nH]c1=O,inactive,,inactive,"inconclusive: 0.0023 µM [rising, full curve, poor fit]",
COc1ccc(CCC(=O)Nc2nc3ccc(Cl)cc3s2)cc1OC,"inconclusive: 3.72 µM [cytotoxic, full curve, poor fit]",,active: 11.8 µM,"inconclusive: 9.35 µM [cytotoxic, partial curve, poor fit]",
Cc1ccc(C(=O)Nc2cccc(C(F)(F)F)c2)cc1-c1ccc2nc(NCCN3CCOCC3)ncc2c1,active: 5.9 µM,,active: 2.96 µM,,
CC(C)Oc1cc(Nc2nc(N[C@@H](C)c3ccc(F)cn3)ncc2Cl)[nH]n1,inactive,,"inconclusive: 33.2 µM [cytotoxic, single point]","inconclusive: 29.6 µM [cytotoxic, single point]",
CN1CCC(COc2cnc(-c3cccc(Cn4nc(-c5cccc(C#N)c5)ccc4=O)c3)nc2)CC1,inactive,,inconclusive: 0.001 µM,inactive,
Clc1ccc2c(c1)C(N1CCNCC1)=Nc1ccccc1O2,"inconclusive: 29.6 µM [cytotoxic, partial curve, poor fit]",,"inconclusive: 13.2 µM [cytotoxic, partial curve, poor fit]","inconclusive: 5.9 µM [cytotoxic, partial curve, poor fit]",
CN(CC=CC#CC(C)(C)C)Cc1cccc2ccccc12,"inconclusive: 10.5 µM [cytotoxic, partial curve, poor fit]","inconclusive: 33.2 µM [cytotoxic, single point]",,inactive,
CC1(CN2CCC(n3c(=O)[nH]c4ccccc43)CC2)OCc2ccccc2-n2cccc21 (configuration not stated),"inconclusive: 20.9 µM [cytotoxic, partial curve, poor fit]",,"inconclusive: 9.35 µM [cytotoxic, single point]","inconclusive: 1.32 µM [cytotoxic, partial curve, poor fit]",
COc1cnc(NS(=O)(=O)c2ccc(N)cc2)nc1,inactive,,"inconclusive: 14.8 µM [cytotoxic, partial curve]","inconclusive: 13.2 µM [cytotoxic, partial curve]",
Cc1cc(CS(=O)(=O)c2ccccc2)cc(OCc2ccc(CN3CCC[C@H]3CO)cc2)c1,"inconclusive: 5.26 µM [cytotoxic, partial curve, poor fit]",,"inconclusive: 18.7 µM [cytotoxic, partial curve, poor fit]",,
Nc1cccc2c1C(=O)N(C1CCC(=O)NC1=O)C2=O (configuration not stated),"inconclusive: 0.0033 µM [cytotoxic, full curve, poor fit]",,"inconclusive: 37.2 µM [cytotoxic, partial curve, poor fit]",,
NC(=O)c1cccc(N)c1,inactive,inactive,,"inconclusive: 0.0418 µM [rising, full curve, poor fit]",
CC(C)C[C@H](NC(=O)CNC(=O)c1cc(Cl)ccc1Cl)B1OC(=O)CC(CC(=O)O)(C(=O)O)O1 (some centres not stated),active: 0.118 µM,,active: 0.0418 µM,active: 0.0526 µM,
CN(C)CCOc1ccc(C(=C(CCCl)c2ccccc2)c2ccccc2)cc1,active: 26.4 µM,,inactive,"inconclusive: 4.69 µM [cytotoxic, partial curve, poor fit]",

Structure (SMILES),Potency [1],Potency [2],Potency [3],Potency [4],viability (% of control) [1]
C[C@@H](c1ncncc1F)[C@](O)(Cn1cncn1)c1ccc(F)cc1F,"inconclusive: 13.2 µM [cytotoxic, partial curve, poor fit]",,inactive,"inconclusive: 6.62 µM [cytotoxic, partial curve, poor fit]",
CC1C(=O)OC2C(O)C34C5CC(C(C)(C)C)C36C(OC(=O)C6O)OC4(C(=O)O5)C12O (configuration not stated),inactive,,inactive,inactive,
C#Cc1cccc(Nc2ncnc3cc(OCCOC)c(OCCOC)cc23)c1,"inconclusive: 10.5 µM [cytotoxic, partial curve, poor fit]",,"inconclusive: 11.8 µM [cytotoxic, partial curve]",,
COc1cc(Cl)cn2c(-c3cccc(NC4CNC4)n3)cnc12,inactive,,"inconclusive: 37.2 µM [cytotoxic, single point]","inconclusive: 26.4 µM [cytotoxic, single point]",
Cc1nn(Cc2ccccc2Cl)c(C)c1CN(C)CC(O)COc1ccc(Cl)cc1 (configuration not stated),active: 20.9 µM,,active: 23.5 µM,active: 33.2 µM,
NC[C@H]1O[C@H](O[C@H]2[C@@H](O)[C@@H](O[C@H]3O[C@H](CO)[C@@H](O)[C@H](N)[C@@H]3O)[C@H](N)C[C@@H]2N)[C@H](N)C[C@H]1O,"inconclusive: 9.35 µM [cytotoxic, partial curve, poor fit]",,"inconclusive: 0.0935 µM [rising, full curve, poor fit]","inconclusive: 37.2 µM [cytotoxic, single point]",
Cc1c(C)c2c(c(C)c1O)CCC(C)(COc1ccc(CC3SC(=O)NC3=O)cc1)O2 (configuration not stated),inactive,,"inconclusive: 26.4 µM [cytotoxic, single point]",inactive,
Cc1ccc(C(=O)N(CCCN)[C@@H](c2nc3cc(Cl)ccc3c(=O)n2Cc2ccccc2)C(C)C)cc1,"inconclusive: 20.9 µM [cytotoxic, partial curve]",,inactive,"inconclusive: 16.6 µM [cytotoxic, partial curve]",
CCOc1ccccc1N=Nc1c(C)[nH]n(-c2nc(-c3ccccc3)cs2)c1=O,active: 2.35 µM,,"inconclusive: 20.9 µM [cytotoxic, partial curve]","inconclusive: 18.7 µM [cytotoxic, single point]",
OCCN1C[C@H](O)[C@@H](O)[C@H](O)[C@@H]1CO,"inconclusive: 0.0209 µM [rising, full curve, poor fit]",,inactive,"inconclusive: 0.0021 µM [rising, full curve, poor fit]",
CNC(=O)c1ccc(N2C(=S)N(c3cnc(C#N)c(C(F)(F)F)c3)C(=O)C23CCC3)cc1F,"inconclusive: 37.2 µM [cytotoxic, single point]",,inactive,,
O=C(Nc1ccc(Oc2ccnc3[nH]ccc23)c(F)c1)c1cccn(-c2ccc(F)cc2)c1=O,,,"inconclusive: 6.62 µM [cytotoxic, partial curve, poor fit]",,inconclusive: 86% [cytotoxic]
CNNCc1ccc(C(=O)NC(C)C)cc1,"inconclusive: 23.5 µM [cytotoxic, single point]",,"inconclusive: 20.9 µM [cytotoxic, partial curve]",inactive,
COC(=O)Nc1nc2ccc(C(=O)c3cccs3)cc2[nH]1,active: 0.526 µM,,"inconclusive: 0.0017 µM [cytotoxic, full curve]",,
Cc1c(-c2cccc3c(CCCOc4cccc5ccccc45)c(C(=O)O)n(Cc4cccnc4)c23)c(COc2ccc(N3CCN([S+](=O)([O-])N(C)C)CC3)cc2)nn1C,"inconclusive: 23.5 µM [cytotoxic, partial curve]",,"inconclusive: 16.6 µM [cytotoxic, partial curve, poor fit]","inconclusive: 18.7 µM [cytotoxic, partial curve, poor fit]",
Cc1cc([C@@H](C)Nc2ccccc2C(=O)O)c2nc(N3CCOCC3)cc(=O)n2c1,"inconclusive: 17.1 µM [cytotoxic, partial curve]",,"inconclusive: 12.1 µM [cytotoxic, partial curve]","inconclusive: 42.9 µM [cytotoxic, partial curve]",
OCC(O)C(O)C(O)CO (configuration not stated),"inconclusive: 37.2 µM [cytotoxic, single point]",,"inconclusive: 29.6 µM [cytotoxic, single point]","inconclusive: 33.2 µM [cytotoxic, single point]",
COc1ccnc2[nH]cc(C(=O)C(=O)N3CCN(C(=O)c4ccccc4)C[C@@H]3C)c12,inactive,,inactive,"inconclusive: 0.0019 µM [cytotoxic, full curve, poor fit]",

# Complete entries, looked up by structure:
# CNNCc1ccc(C(=O)NC(C)C)cc1 reads Potency [1]: inconclusive: 23.5 µM [cytotoxic, single point]; Potency [3]: inconclusive: 20.9 µM [cytotoxic, partial curve]; Potency [4]: inactive
# Cc1c(-c2cccc3c(CCCOc4cccc5ccccc45)c(C(=O)O)n(Cc4cccnc4)c23)c(COc2ccc(N3CCN([S+](=O)([O-])N(C)C)CC3)cc2)nn1C reads Potency [1]: inconclusive: 23.5 µM [cytotoxic, partial curve]; Potency [3]: inconclusive: 16.6 µM [cytotoxic, partial curve, poor fit]; Potency [4]: inconclusive: 18.7 µM [cytotoxic, partial curve, poor fit]
